Test results as given in patent US7381728B2, “Piperazine derivatives useful for the treatment of gastrointestinal disorders” (Glaxo Group Limited, priority 2004, dated 2008).
Some of these results come from one statement about several compounds together.

Chains of the proteins cited; added tags and fusions are not shown.
UniProt Q92847, whole entry: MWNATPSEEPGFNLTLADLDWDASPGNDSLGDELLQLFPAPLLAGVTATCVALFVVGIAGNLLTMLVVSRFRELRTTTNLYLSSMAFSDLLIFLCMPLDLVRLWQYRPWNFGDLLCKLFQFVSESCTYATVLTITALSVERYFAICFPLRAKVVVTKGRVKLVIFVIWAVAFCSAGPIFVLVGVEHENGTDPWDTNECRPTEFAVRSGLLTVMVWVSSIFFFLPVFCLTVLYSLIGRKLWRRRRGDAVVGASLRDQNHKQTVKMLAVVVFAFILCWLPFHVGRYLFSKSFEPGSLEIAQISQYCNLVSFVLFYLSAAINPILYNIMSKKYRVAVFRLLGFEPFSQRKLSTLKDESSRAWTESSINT

Key:
Ghrelin Receptor GHS-R [1] = target: T1, Ghrelin Receptor GHS-R (Homo sapiens, UniProt Q92847); test: GHS-R GTPγS functional agonist assay; type: biochemical; design: The open reading frame of GHS-R was transferred from pCDN into pFastBacmam vector; expressed in transfected cells; host or cells: Membranes of HEK293T cells (Lipofectamine, pCDNA3) or of HEK293F cells (BacMam co-transduction with rat Gαo); conditions: membranes of HEK293 cells transiently expressing GHS-R (protocols I and II); [35S]GTPγS SPA; read-out: activity in the GHS-R GTPγS functional agonist assays
Ghrelin Receptor GHS-R [2] = target: T1, Ghrelin Receptor GHS-R; test: GHSR Agonist BACMAM FLIPR Assay; type: cell-based; design: The open reading frame of GHS-R was transferred from pCDN into pFastBacmam vector; expressed in transfected cells; host or cells: HEK MSR II cells or U2OS cells transduced with human GHSR BacMam virus; conditions: HEK MSR II or U2OS cells transduced with human GHSR BACMAM virus; Fluo 4 calcium fluorescence

For `COc1cc(F)c(NS(=O)(=O)c2ccc(-c3cccs3)cc2)cc1N1C[C@@H](C)N[C@@H](C)C1` [Example 238, N-[5-(cis-3,5-Dimethyl-1-piperazinyl)-2-fluoro-4-(methyloxy)phenyl]-4-(2-thienyl)benzenesulfonamide], the EC50 (Ghrelin Receptor GHS-R [1]) was < 1000 nM and the EC50 (Ghrelin Receptor GHS-R [2]) was < 1000 nM.

With `COc1ccc(NS(=O)(=O)c2ccc(-c3ccccc3)s2)cc1N1C[C@@H](C)N[C@@H](C)C1` [Example 135, N-[3-(cis-3,5-Dimethyl-1-piperazinyl)-4-(methyloxy)phenyl]-5-phenyl-2-thiophenesulfonamide] the EC50 (Ghrelin Receptor GHS-R [1]) was < 1000 nM and the EC50 (Ghrelin Receptor GHS-R [2]) was < 1000 nM.

For `COc1ccc(NS(=O)(=O)c2ccc(-c3c(C)cccc3C)s2)cc1N1C[C@@H](C)N[C@@H](C)C1` [Example 218, 5-(2,6-Dimethylphenyl)-N-[3-(cis-3,5-dimethyl-1-piperazinyl)-4-(methyloxy)phenyl]-2-thiophenesulfonamide], the EC50 (Ghrelin Receptor GHS-R [1]) was < 1000 nM and the EC50 (Ghrelin Receptor GHS-R [2]) was < 1000 nM.

`C[C@@H]1CN(c2ccc(F)c(NS(=O)(=O)c3ccc(Br)c(F)c3)c2)C[C@H](C)N1` [Example 89, 4-Bromo-N-[5-(cis-3,5-dimethyl-1-piperazinyl)-2-fluorophenyl]-3-fluorobenzenesulfonamide] was tested, and the EC50 (Ghrelin Receptor GHS-R [1]) was < 1000 nM and the EC50 (Ghrelin Receptor GHS-R [2]) was < 1000 nM.

With `COCc1cccc(-c2ccc(S(=O)(=O)Nc3cc(N4C[C@@H](C)N[C@@H](C)C4)ccc3OC)s2)c1` [Example 123, N-[5-(cis-3,5-Dimethyl-1-piperazinyl)-2-(methyloxy)phenyl]-5-{3-[(methyloxy)methyl]phenyl}-2-thiophenesulfonamide] the EC50 (Ghrelin Receptor GHS-R [1]) was < 1000 nM and the EC50 (Ghrelin Receptor GHS-R [2]) was < 1000 nM.

With `COc1ccc(NS(=O)(=O)c2ccc(Br)cc2)cc1N1C[C@@H](C)N[C@@H](C)C1` [Example 101, 4-Bromo-N-[3-(cis-3,5-dimethyl-1-piperazinyl)-4-(methyloxy)phenyl]benzenesulfonamide] the EC50 (Ghrelin Receptor GHS-R [1]) was < 1000 nM and the EC50 (Ghrelin Receptor GHS-R [2]) was < 1000 nM.

`COc1ccc(N2C[C@@H](C)N[C@@H](C)C2)cc1NS(=O)(=O)c1ccc(Br)cc1C` [Example 102, 4-Bromo-N-[5-(cis-3,5-dimethyl-1-piperazinyl)-2-(methyloxy)phenyl]-2-methylbenzenesulfonamide] was tested, and the EC50 (Ghrelin Receptor GHS-R [1]) was < 1000 nM and the EC50 (Ghrelin Receptor GHS-R [2]) was < 1000 nM.

With `COc1ccc(NS(=O)(=O)c2ccc(Br)cc2F)cc1N1C[C@@H](C)N[C@@H](C)C1` [Example 52, 4-Bromo-N-[3-(cis-3,5-dimethyl-1-piperazinyl)-4-(methyloxy)phenyl]-2-fluorobenzenesulfonamide] the EC50 (Ghrelin Receptor GHS-R [1]) was < 1000 nM and the EC50 (Ghrelin Receptor GHS-R [2]) was < 1000 nM.

In the case of `COc1ccc(NS(=O)(=O)c2ccc(C(C)C)cc2)cc1N1C[C@@H](C)N[C@@H](C)C1` [Example 59, N-[3-(cis-3,5-Dimethyl-1-piperazinyl)-4-(methyloxy)phenyl]-4-(1-methylethyl)benzenesulfonamide], the EC50 (Ghrelin Receptor GHS-R [1]) is reported as < 1000 nM and the EC50 (Ghrelin Receptor GHS-R [2]) is reported as < 1000 nM.

For `C[C@@H]1CN(c2ccc(C#N)c(NS(=O)(=O)c3ccc(-c4ccc(Cl)s4)cc3)c2)C[C@H](C)N1` [Example 96, 4-(5-Chloro-2-thienyl)-N-[2-cyano-5-(cis-3,5-dimethyl-1-piperazinyl)phenyl]benzenesulfonamide], the EC50 (Ghrelin Receptor GHS-R [1]) was < 1000 nM and the EC50 (Ghrelin Receptor GHS-R [2]) was < 1000 nM.

For `COCc1cccc(-c2ccc(S(=O)(=O)Nc3ccc(OC)c(N4C[C@@H](C)N[C@@H](C)C4)c3)cc2)c1` [Example 156, N-[3-(cis-3,5-Dimethyl-1-piperazinyl)-4-(methyloxy)phenyl]-3′-[(methyloxy)methyl]-4-biphenylsulfonamide], the EC50 (Ghrelin Receptor GHS-R [1]) was < 1000 nM and the EC50 (Ghrelin Receptor GHS-R [2]) was < 1000 nM.

`COc1ccc(NS(=O)(=O)c2ccc(Br)cc2C)cc1N1C[C@@H](C)N[C@@H](C)C1` [Example 72, 4-Bromo-N-[3-(cis-3,5-dimethyl-1-piperazinyl)-4-(methyloxy)phenyl]-2-methylbenzenesulfonamide] was tested, and the EC50 (Ghrelin Receptor GHS-R [1]) was < 1000 nM and the EC50 (Ghrelin Receptor GHS-R [2]) was < 1000 nM.

`COc1ccc(N2C[C@@H](C)N[C@@H](C)C2)cc1NS(=O)(=O)c1ccc(-c2ccsc2)c(C)c1` [Example 179, N-[5-(cis-3,5-Dimethyl-1-piperazinyl)-2-(methyloxy)phenyl]-3-methyl-4-(3-thienyl)benzenesulfonamide] was tested, and the EC50 (Ghrelin Receptor GHS-R [1]) was < 1000 nM and the EC50 (Ghrelin Receptor GHS-R [2]) was < 1000 nM.

`COc1ccc(N2C[C@@H](C)N[C@@H](C)C2)cc1NS(=O)(=O)c1ccc(-c2ccoc2)s1` [Example 239, N-[5-(cis-3,5-Dimethyl-1-piperazinyl)-2-(methyloxy)phenyl]-5-(3-furanyl)-2-thiophenesulfonamide] was tested, and the EC50 (Ghrelin Receptor GHS-R [1]) was < 1000 nM and the EC50 (Ghrelin Receptor GHS-R [2]) was < 1000 nM.

`Cc1ccc(N2C[C@@H](C)N[C@@H](C)C2)cc1NS(=O)(=O)c1ccc2ccccc2c1` [Example 69, N-[5-(cis-3,5-Dimethyl-1-piperazinyl)-2-methylphenyl]-2-naphthalenesulfonamide] was tested, and the EC50 (Ghrelin Receptor GHS-R [1]) was < 1000 nM and the EC50 (Ghrelin Receptor GHS-R [2]) was < 1000 nM.

With `COc1ccc(N2C[C@@H](C)N[C@@H](C)C2)cc1NS(=O)(=O)c1ccc(-c2ccc(C)s2)c(C)c1` [Example 283, N-[5-(cis-3,5-Dimethyl-1-piperazinyl)-2-(methyloxy)phenyl]-3-methyl-4-(5-methyl-2-thienyl)benzenesulfonamide] the EC50 (Ghrelin Receptor GHS-R [1]) was < 1000 nM and the EC50 (Ghrelin Receptor GHS-R [2]) was < 1000 nM.

In the case of `CCOc1ccc(N2C[C@@H](C)N[C@@H](C)C2)cc1NS(=O)(=O)c1ccc(-c2cccs2)cc1` [Example 195, N-[5-(cis-3,5-Dimethyl-1-piperazinyl)-2-(ethyloxy)phenyl]-4-(2-thienyl)benzenesulfonamide], the EC50 (Ghrelin Receptor GHS-R [1]) is reported as < 1000 nM and the EC50 (Ghrelin Receptor GHS-R [2]) is reported as < 1000 nM.

`COc1ccc(N2C[C@@H](C)N[C@@H](C)C2)cc1NS(=O)(=O)c1ccc(-c2cccc(C)c2)cc1` [Example 190, N-[5-(cis-3,5-Dimethyl-1-piperazinyl)-2-(methyloxy)phenyl]-3′-methyl-4-biphenylsulfonamide] was tested, and the EC50 (Ghrelin Receptor GHS-R [1]) was < 1000 nM and the EC50 (Ghrelin Receptor GHS-R [2]) was < 1000 nM.

With `C[C@@H]1CN(c2ccc(F)c(NS(=O)(=O)c3ccc(-c4ccoc4)c(F)c3)c2)C[C@H](C)N1` [Example 236, N-[5-(cis-3,5-Dimethyl-1-piperazinyl)-2-fluorophenyl]-3-fluoro-4-(3-furanyl)benzenesulfonamide] the EC50 (Ghrelin Receptor GHS-R [1]) was < 1000 nM and the EC50 (Ghrelin Receptor GHS-R [2]) was < 1000 nM.

For `CC(=O)c1ccc(N2C[C@@H](C)N[C@@H](C)C2)cc1NS(=O)(=O)c1ccc(-c2cccs2)cc1` [Example 26, N-[2-Acetyl-5-(cis-3,5-dimethyl-1-piperazinyl)phenyl]-4-(2-thienyl)benzenesulfonamide], the EC50 (Ghrelin Receptor GHS-R [1]) was < 1000 nM and the EC50 (Ghrelin Receptor GHS-R [2]) was < 1000 nM.

With `COc1ccc(N2C[C@@H](C)N[C@@H](C)C2)cc1NS(=O)(=O)/C=C/c1ccccc1` [Example 38, (E)-N-[5-(cis-3,5-Dimethyl-1-piperazinyl)-2-(methyloxy)phenyl]-2-phenylethenesulfonamide] the EC50 (Ghrelin Receptor GHS-R [1]) was < 1000 nM and the EC50 (Ghrelin Receptor GHS-R [2]) was < 1000 nM.

For `COc1ccc(NS(=O)(=O)c2ccc(-c3ccc(Cl)cc3)s2)cc1N1C[C@@H](C)N[C@@H](C)C1` [Example 221, 5-(4-Chlorophenyl)-N-[3-(cis-3,5-dimethyl-1-piperazinyl)-4-(methyloxy)phenyl]-2-thiophenesulfonamide], the EC50 (Ghrelin Receptor GHS-R [1]) was < 1000 nM and the EC50 (Ghrelin Receptor GHS-R [2]) was < 1000 nM.

`COc1ccc(N2C[C@@H](C)N[C@@H](C)C2)cc1NS(=O)(=O)c1ccc(-c2cccc(Cl)c2)s1` [Example 211, 5-(3-Chlorophenyl)-N-[5-(cis-3,5-dimethyl-1-piperazinyl)-2-(methyloxy)phenyl]-2-thiophenesulfonamide] was tested, and the EC50 (Ghrelin Receptor GHS-R [1]) was < 1000 nM and the EC50 (Ghrelin Receptor GHS-R [2]) was < 1000 nM.

With `COc1ccc(NS(=O)(=O)c2ccc(-c3cccc(F)c3)s2)cc1N1C[C@@H](C)N[C@@H](C)C1` [Example 226, N-[3-(cis-3,5-Dimethyl-1-piperazinyl)-4-(methyloxy)phenyl]-5-(3-fluorophenyl)-2-thiophenesulfonamide] the EC50 (Ghrelin Receptor GHS-R [1]) was < 1000 nM and the EC50 (Ghrelin Receptor GHS-R [2]) was < 1000 nM.

With `COc1cc(-c2cccs2)ccc1S(=O)(=O)Nc1cc(N2C[C@@H](C)N[C@@H](C)C2)ccc1F` [Example 262, N-[5-(cis-3,5-Dimethyl-1-piperazinyl)-2-fluorophenyl]-2-(methyloxy)-4-(2-thienyl)benzenesulfonamide] the EC50 (Ghrelin Receptor GHS-R [1]) was < 1000 nM and the EC50 (Ghrelin Receptor GHS-R [2]) was < 1000 nM.

With `COc1ccc(N2C[C@@H](C)N[C@@H](C)C2)cc1NS(=O)(=O)c1ccc(-c2ccco2)cc1C` [Example 180, N-[5-(cis-3,5-Dimethyl-1-piperazinyl)-2-(methyloxy)phenyl]-4-(2-furanyl)-2-methylbenzenesulfonamide] the EC50 (Ghrelin Receptor GHS-R [1]) was < 1000 nM and the EC50 (Ghrelin Receptor GHS-R [2]) was < 1000 nM.

With `COc1ccc(N2C[C@@H](C)N[C@@H](C)C2)cc1NS(=O)(=O)c1cccc2cccnc12` [Example 35, N-[5-(cis-3,5-Dimethyl-1-piperazinyl)-2-(methyloxy)phenyl]-8-quinolinesulfonamide] the EC50 (Ghrelin Receptor GHS-R [1]) was < 1000 nM and the EC50 (Ghrelin Receptor GHS-R [2]) was < 1000 nM.

With `COc1ccc(N2C[C@@H](C)N[C@@H](C)C2)cc1NS(=O)(=O)c1cccc2cccc(Cl)c12` [Example 71, 8-Chloro-N-[5-(cis-3,5-dimethyl-1-piperazinyl)-2-(methyloxy)phenyl]-1-naphthalenesulfonamide] the EC50 (Ghrelin Receptor GHS-R [1]) was < 1000 nM and the EC50 (Ghrelin Receptor GHS-R [2]) was < 1000 nM.

In the case of `C[C@@H]1CN(c2ccc(O)c(NS(=O)(=O)c3ccc(-c4ccccc4F)s3)c2)C[C@H](C)N1` [Example 316, N-[5-(cis-3,5-Dimethyl-1-piperazinyl)-2-hydroxyphenyl]-5-(2-fluorophenyl)-2-thiophenesulfonamide], the EC50 (Ghrelin Receptor GHS-R [1]) is reported as < 1000 nM and the EC50 (Ghrelin Receptor GHS-R [2]) is reported as < 1000 nM.

For `COc1ccc(NS(=O)(=O)c2ccc(-c3cccc(C)c3)cc2)cc1N1C[C@@H](C)N[C@@H](C)C1` [Example 153, N-[3-(cis-3,5-Dimethyl-1-piperazinyl)-4-(methyloxy)phenyl]-3′-methyl-4-biphenylsulfonamide], the EC50 (Ghrelin Receptor GHS-R [1]) was < 1000 nM and the EC50 (Ghrelin Receptor GHS-R [2]) was < 1000 nM.
